Measured values taken from PMC4695046.
Where two headings read alike, the source gives them in different places. No constants are given. Whether binding was seen depends on the method and setting. Some binding calls cover weakened binding; strength is not graded here.

The chains behind the UniProt entries cited, without tags or fusion partners. Residues count along the entry.
UniProt P07339, residues 65-412: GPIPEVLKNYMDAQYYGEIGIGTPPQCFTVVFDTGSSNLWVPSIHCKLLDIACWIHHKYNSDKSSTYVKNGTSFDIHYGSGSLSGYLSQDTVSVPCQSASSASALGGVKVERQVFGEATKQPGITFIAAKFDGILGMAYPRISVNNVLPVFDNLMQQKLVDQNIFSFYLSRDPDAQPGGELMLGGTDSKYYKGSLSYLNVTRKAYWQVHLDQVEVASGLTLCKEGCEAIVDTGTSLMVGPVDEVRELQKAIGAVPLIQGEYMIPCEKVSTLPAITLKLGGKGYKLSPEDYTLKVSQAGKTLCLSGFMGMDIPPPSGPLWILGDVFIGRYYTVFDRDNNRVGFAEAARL
UniProt P46379, residues 376-659: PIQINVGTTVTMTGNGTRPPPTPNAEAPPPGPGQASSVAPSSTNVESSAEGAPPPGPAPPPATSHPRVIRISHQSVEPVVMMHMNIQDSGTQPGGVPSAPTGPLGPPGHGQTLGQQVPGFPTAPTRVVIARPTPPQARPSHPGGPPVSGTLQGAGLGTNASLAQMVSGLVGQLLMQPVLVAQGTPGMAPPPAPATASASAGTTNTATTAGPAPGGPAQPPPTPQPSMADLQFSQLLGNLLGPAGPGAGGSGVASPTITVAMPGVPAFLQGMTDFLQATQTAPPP

Columns and labels:
[1] = target: 48-kDa Cath-D form (aa 65–412 of human cathepsin D), yeast two-hybrid bait (human) (UniProt P07339); assay: two-hybrid; screen by Hybrigenics Services; Cath-D aa 65-412 as bait against a randomly-primed human breast tumor epithelial cell cDNA library
[2] = target: 48-kDa Cath-D form (aa 65–412 of human cathepsin D), yeast two-hybrid bait (human) (UniProt P07339); assay: as above; remark: listed apart in the source

Molecule	binding [1]	binding [2]
BAT3 clone (residues 376–659) identified in the yeast two-hybrid screen (from UniProt P46379 376-659) (domain or fragment)	binds	
TRPS1 clone (residues 635–1281) identified in the yeast two-hybrid screen (domain or fragment, UniProt Q9UHF7 635-1281) SVHESQASDVKQEANHLQGSDGQQSVKESKEHSCTKCDFITQVEEEISRHYRRAHSCYKCRQCSFTAADTQSLLEHFNTVHCQEQDITTANGEEDGHAISTIKEEPKIDFRVYNLLTPDSKMGEPVSESVVKREKLEEKDGLKEKVWTESSSDDLRNVTWRGADILRGSPSYTQASLGLLTPVSGTQEQTKTLRDSPNVEAAHLARPIYGLAVETKGFLQGAPAGGEKSGALPQQYPASGENKSKDESQSLLRRRRGSGVFCANCLTTKTSLWRKNANGGYVCNACGLYQKLHSTPRPLNIIKQNNGEQIIRRRTRKRLNPEALQAEQLNKQQRGSNEEQVNGSPLERRSEDHLTESHQREIPLPSLSKYEAQGSLTKSHSAQQPVLVSQTLDIHKRMQPLHIQIKSPQESTGDPGNSSSVSEGKGSSERGSPIEKYMRPAKHPNYSPPGSPIEKYQYPLFGLPFVHNDFQSEADWLRFWSKYKLSVPGNPHYLSHVPGLPNPCQNYVPYPTFNLPPHFSAVGSDNDIPLDLAIKHSRPGPTANGASKEKTKAPPNVKNEGPLNVVKTEKVDRSTQDELSTKCVHCGIVFLDEVMYALHMSCHGDSGPFQCSICQHLCTDKYDFTTHIQRGLHRNNAQVEKNGKPKE		binds
